PubChem BioAssay AID720505 | Drosophila RNAi Screening Center, 2013
The screen tested about 20,000 reagents; this is a random part of those with a known target gene and a result. Of all reagents, about 2,100 (10%) were called active. 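Raw plate signals without normalisation; calls rest on control-based scores that were not deposited; replicate 2 separates called from uncalled poorly.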 Reagents against one gene are numbered here. Names joined by + are all predicted targets of the reagent. No sequences are given here. Not given: the amount of reagent, the time to read-out.

Test: 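Knock-downs that reduce calcium influx once internal stores are emptied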 (primary screen)
Cells: Drosophila S2R+ cells
Reagents: long dsRNA against Drosophila genes
Conditions: thapsigargin (2 µM) in calcium-free buffer to empty internal stores, then 2 mM calcium added back
Detection: 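Stores emptied by 2 µM thapsigargin without calcium, then 2 mM calcium re-added; fluo-4 fluorescence followed by FLIPR in 384-well plates, per-well averaged endpoint, raw; two screen passes, some wells retested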
Reading the numbers: calcium signal and retest calcium signal: higher = more calcium entry after store depletion
Rule for the call: 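Knock-downs counted as hits when calcium entry dropped relative to STIM1 positive and Rho1 negative controls present on each plate; roughly 1500 genes called, with reductions of differing size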
Meaning of the calls: active = called as lowering calcium entry; inactive = not called

target	dsRNA no.	calcium signal, replicate 1	calcium signal, replicate 2	retest calcium signal, replicate 1	retest calcium signal, replicate 2	outcome
CG13737	1	87.7	84			inactive
Appl	1	106	140			inactive
Hex-C	1	110	195			inactive
CG10038	1	137	131			inactive
Gr64b + Gr64c	1	113	100			inactive
Gr64b + Gr64c	2	104	92.6			inactive
Sse	1	57.1	72.9			active
D	1	79	136			inactive
Grik	1	159	233			inactive
Grik	2	197	141			inactive
CG14427	1	218	103			inactive
CG42266	1	147	105			inactive
CG42266	2	103	219			inactive
OS9 + Hf	1	84.6	106			inactive
CG14070	1	120	188			inactive
CG3294	1	115	121			inactive
CG34357	1	96.9	103			inactive
CG34357	2	117	146			inactive
CG34357	3	108	149			inactive
CG34357	4	115	186			inactive
vap	1	120	116			inactive
Lac	1	185	144			inactive
ATP8 (retired record)	1	177	83.6			inactive
CG15615	1	116	112			inactive
Pph13	1	121	277			inactive
Pph13	2	143	109			inactive
TFAM	1	168	291			inactive
Tpc1	1	163	106			inactive
Tpc1	2	101	143			inactive
CG13005	1	97.5	118			inactive
Fuca	1	95	86.5			inactive
CG14414	1	83	137			inactive
CG13603	1	116	160			inactive
CG30184	1	115	244			inactive
Gbeta13F	1	156	120			inactive
CG2104	1	135	142			inactive
bam	1	243	165			inactive
Ugt37E1	1	131	102			inactive
CG9068	1	122	135			inactive
CG4854	1	100	91.9			inactive
CG3347	1	165	120			inactive
CG14985	1	82.1	99.2			inactive
Cpsf5	1	95.4	114			inactive
Polr2F	1	70.5	86.2			active
CG43111	1	73.9	105			inactive
CG13014	1	71.9	135			active
wun2	1	134	203			inactive
Cpr5C	1	158	135	4797	126	inactive
Stt3A	1	226	186			inactive
CG43104 (retired record)	1	71	92			inactive
CG13559	1	157	182			inactive
Alg9	1	238	254			inactive
CG14252	1	188	208			inactive

Laid out differently: 14 of the entries above
target,dsRNA no.,"calcium signal, replicate 1","calcium signal, replicate 2","retest calcium signal, replicate 1","retest calcium signal, replicate 2",outcome
CG34357,2,117,146,,,inactive
CG34357,3,108,149,,,inactive
CG34357,4,115,186,,,inactive
vap,1,120,116,,,inactive
Lac,1,185,144,,,inactive
ATP8 (retired record),1,177,83.6,,,inactive
CG15615,1,116,112,,,inactive
Pph13,1,121,277,,,inactive
Pph13,2,143,109,,,inactive
TFAM,1,168,291,,,inactive
Tpc1,1,163,106,,,inactive
Tpc1,2,101,143,,,inactive
CG13005,1,97.5,118,,,inactive
Fuca,1,95,86.5,,,inactive

The listing continues:
target	dsRNA no.	calcium signal, replicate 1	calcium signal, replicate 2	retest calcium signal, replicate 1	retest calcium signal, replicate 2	outcome
CG31957	1	102	104			inactive
CG6294 + CG6299	1	68.5	131			active
lncRNA:mimi	1	159	97.9			inactive
mwh	1	67.4	115			inactive
CG4884	1	114	91.8			inactive
Tom20	1	99.3	83.2			inactive
CG42827	1	3666	197	145	82.2	inactive
Doc1	1	96.1	84.6			inactive
Galphao	1	150	104			inactive
Fntb	1	135	259			inactive
PIG-K	1	102	117			inactive
CG13039	1	68.4	104			inactive
dyw	1	123	150			inactive
CG32582 (retired record)	1	143	116			inactive
CG7065	1	135	134			inactive
CG13231	1	119	134			inactive
sip3	1	172	137			inactive
Sgs7	1	103	101			inactive
Neurochondrin	1	109	155			inactive
l(1)G0469	1	82.9	108			inactive
l(1)G0469	2	78.5	110			inactive
CG11825	1	101	86.5			inactive
Cby	1	245	175			inactive
CG16985	1	67.7	72.3			inactive
CG43155	1	102	108			inactive
CG43155	2	114	103			inactive
ca	1	124	134			inactive
ca	2	115	197			inactive
ca	3	149	193			inactive
CG6454	1	206	213			inactive
